Results: paper PMC6039432, “A small-molecule inhibitor of SOD1-Derlin-1 interaction ameliorates pathology in an ALS mouse model” (Nature Communications, 2018)
Results are given in words; binding and its absence hold for the method and conditions named. In cells and extracts the contact can be indirect. Some results given as binding are weak or reduced against the parent protein; the word gives no strength. For some of these results: Sequences can lack the tags named with a protein.

The chains behind the UniProt entries cited, without tags or fusion partners. Where a name states a change or a piece, a line headed by the entry shows the natural chain unless it says otherwise. A line that says so, or that is headed by a name, gives the form on record, which may keep a tag or linker. Residues count along the entry.
UniProt Q86TM6: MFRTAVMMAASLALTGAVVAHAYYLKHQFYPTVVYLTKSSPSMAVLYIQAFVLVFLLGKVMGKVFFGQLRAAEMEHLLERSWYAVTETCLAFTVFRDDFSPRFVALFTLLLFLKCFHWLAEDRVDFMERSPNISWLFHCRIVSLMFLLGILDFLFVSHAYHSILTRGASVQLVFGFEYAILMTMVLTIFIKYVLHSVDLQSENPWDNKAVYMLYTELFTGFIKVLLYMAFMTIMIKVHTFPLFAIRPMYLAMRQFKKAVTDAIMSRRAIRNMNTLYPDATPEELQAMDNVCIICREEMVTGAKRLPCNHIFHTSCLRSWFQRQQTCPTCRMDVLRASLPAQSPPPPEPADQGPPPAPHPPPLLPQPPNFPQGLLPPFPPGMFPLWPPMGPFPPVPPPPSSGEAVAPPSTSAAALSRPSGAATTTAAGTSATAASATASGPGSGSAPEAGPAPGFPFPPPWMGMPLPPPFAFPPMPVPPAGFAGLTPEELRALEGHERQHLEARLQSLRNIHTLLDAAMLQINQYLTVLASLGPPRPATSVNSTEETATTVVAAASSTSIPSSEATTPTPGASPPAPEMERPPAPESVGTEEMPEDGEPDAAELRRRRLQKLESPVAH
UniProt P00441: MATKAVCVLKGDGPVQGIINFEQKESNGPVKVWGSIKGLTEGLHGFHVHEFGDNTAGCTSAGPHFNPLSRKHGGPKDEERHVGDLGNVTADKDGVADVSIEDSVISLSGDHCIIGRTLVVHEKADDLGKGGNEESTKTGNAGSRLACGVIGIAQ
Flag-SOD1(1-20)-CFP: residues 2-21 of P00441
Flag-SOD1^G93A (P00441, form named): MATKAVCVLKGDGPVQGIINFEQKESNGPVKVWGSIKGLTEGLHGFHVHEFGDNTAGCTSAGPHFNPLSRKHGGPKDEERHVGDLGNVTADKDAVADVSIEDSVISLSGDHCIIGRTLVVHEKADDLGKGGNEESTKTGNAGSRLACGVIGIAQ

How the values were obtained:
[1] = target: T1, Derlin-1 of mouse spinal cord (mouse (endogenous in spinal cord)) (UniProt Q99J56); assay: co-IP; mouse spinal cord homogenate (1% Triton X-100), anti-Derlin-1 antibody with protein G-Sepharose, blotted for SOD1 and Derlin-1
T1 sequence: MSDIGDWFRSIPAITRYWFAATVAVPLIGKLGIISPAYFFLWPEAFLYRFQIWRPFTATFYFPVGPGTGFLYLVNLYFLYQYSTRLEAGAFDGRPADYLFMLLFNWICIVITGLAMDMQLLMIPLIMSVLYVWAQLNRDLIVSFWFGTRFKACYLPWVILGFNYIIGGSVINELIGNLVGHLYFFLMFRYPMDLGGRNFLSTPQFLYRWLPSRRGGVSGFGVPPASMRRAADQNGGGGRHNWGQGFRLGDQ

[2] = target: T2, Derlin-2-Flag (UniProt Q9GZP9); assay: co-IP; cell-based immunoprecipitation: HEK293A cells transfected, treated with DMSO or #56 analogs for 24 h, lysed (1% Triton X-100), anti-Flag beads, blotted for HA and Flag
T2 sequence: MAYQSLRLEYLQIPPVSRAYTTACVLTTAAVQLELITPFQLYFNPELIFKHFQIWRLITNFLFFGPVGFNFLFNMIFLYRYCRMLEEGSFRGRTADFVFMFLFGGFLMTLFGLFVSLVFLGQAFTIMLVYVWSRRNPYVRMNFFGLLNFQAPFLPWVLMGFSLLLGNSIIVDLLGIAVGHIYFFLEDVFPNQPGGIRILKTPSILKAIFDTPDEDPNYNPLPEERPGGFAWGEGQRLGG

[3] = target: T3, Derlin-3-Flag (UniProt Q96Q80); assay: as above
T3 sequence: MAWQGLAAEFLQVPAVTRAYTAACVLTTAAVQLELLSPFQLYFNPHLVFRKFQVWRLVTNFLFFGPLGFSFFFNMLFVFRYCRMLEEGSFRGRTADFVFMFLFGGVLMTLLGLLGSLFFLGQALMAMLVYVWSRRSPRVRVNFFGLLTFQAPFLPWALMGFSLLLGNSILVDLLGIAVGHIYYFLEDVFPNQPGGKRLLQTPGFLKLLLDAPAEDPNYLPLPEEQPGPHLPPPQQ

[4] = target: Flag-HRD1 (UniProt Q86TM6); assay: as above
[5] = target: Flag-SOD1^G93A (human) (UniProt P00441); assay: as above
[6] = target: Flag-SOD1^G93A (human) (UniProt P00441); assay: FRET or BRET; TR-FRET competition: lysate of HEK293A cells co-transfected with Flag-SOD1^G93A and Derlin-1-HA incubated with biotinylated peptide for 16 h, then Flag-Eu and HA-d2 added; the pair that is blocked
[7] = target: Flag-SOD1^G93A (human) (UniProt P00441); assay: FRET or BRET; TR-FRET in lysate of co-transfected HEK293A cells; anti-Flag antibody labelled with Eu and anti-HA antibody labelled with d2; FRET buffer 25 mM phosphate pH 7.0, 400 mM potassium fluoride, 0.1% BSA, 0.5% Triton X-100; signal as fold change over non-transfected lysate
[8] = target: Flag-SOD1(1-20)-CFP (human) (UniProt P00441); assay: co-IP; in vitro immunoprecipitation: complex formed in co-transfected HEK293A cells, purified on anti-Flag beads (500 mM NaCl washes), eluted with Flag peptide, ultrafiltered, incubated with DMSO or compounds at 4 °C for 16 h, precipitated again with anti-Flag beads, blotted for HA and Flag
[9] = target: Flag-SOD1^G93A (human) (UniProt P00441); assay: as above
[10] = target: T4, Derlin-1-HA, Q9BUN8; assay: co-IP; cell-based immunoprecipitation: HEK293A cells transfected, treated with DMSO or #56 analogs for 24 h, lysed (1% Triton X-100), anti-Flag beads, blotted for HA and Flag; details: remark: other sources report otherwise
T4 chain: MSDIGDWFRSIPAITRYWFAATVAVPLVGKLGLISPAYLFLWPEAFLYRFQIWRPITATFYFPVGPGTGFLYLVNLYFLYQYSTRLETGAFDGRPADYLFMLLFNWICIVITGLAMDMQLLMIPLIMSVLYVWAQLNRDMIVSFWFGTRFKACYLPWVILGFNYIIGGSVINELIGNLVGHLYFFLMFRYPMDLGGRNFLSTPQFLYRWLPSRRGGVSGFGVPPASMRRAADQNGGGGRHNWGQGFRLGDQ

Measured: binding

SOD1^G93A of SOD1^G93A transgenic mice (from UniProt P00441 1-154)
binds: [1]

B1: Derlin-1-HA (protein, UniProt Q9BUN8 1-251)
chain: MSDIGDWFRSIPAITRYWFAATVAVPLVGKLGLISPAYLFLWPEAFLYRFQIWRPITATFYFPVGPGTGFLYLVNLYFLYQYSTRLETGAFDGRPADYLFMLLFNWICIVITGLAMDMQLLMIPLIMSVLYVWAQLNRDMIVSFWFGTRFKACYLPWVILGFNYIIGGSVINELIGNLVGHLYFFLMFRYPMDLGGRNFLSTPQFLYRWLPSRRGGVSGFGVPPASMRRAADQNGGGGRHNWGQGFRLGDQ
not listed: [1] | [10]
binds: all other assays above

B2: Derlin-1-HA, Q9BUN8 1-251 (protein)
chain: MSDIGDWFRSIPAITRYWFAATVAVPLVGKLGLISPAYLFLWPEAFLYRFQIWRPITATFYFPVGPGTGFLYLVNLYFLYQYSTRLETGAFDGRPADYLFMLLFNWICIVITGLAMDMQLLMIPLIMSVLYVWAQLNRDMIVSFWFGTRFKACYLPWVILGFNYIIGGSVINELIGNLVGHLYFFLMFRYPMDLGGRNFLSTPQFLYRWLPSRRGGVSGFGVPPASMRRAADQNGGGGRHNWGQGFRLGDQ
binds: [10]
